Results published in PMC3083433.
Results are given in words; binding and its absence hold for the method and conditions named. Binding seen in cells or lysates may run through a third protein. Binding can be weak; no strength is given.

Biological target: T1, tissue transglutaminase (tTG) (UniProt P21980)
T1 sequence: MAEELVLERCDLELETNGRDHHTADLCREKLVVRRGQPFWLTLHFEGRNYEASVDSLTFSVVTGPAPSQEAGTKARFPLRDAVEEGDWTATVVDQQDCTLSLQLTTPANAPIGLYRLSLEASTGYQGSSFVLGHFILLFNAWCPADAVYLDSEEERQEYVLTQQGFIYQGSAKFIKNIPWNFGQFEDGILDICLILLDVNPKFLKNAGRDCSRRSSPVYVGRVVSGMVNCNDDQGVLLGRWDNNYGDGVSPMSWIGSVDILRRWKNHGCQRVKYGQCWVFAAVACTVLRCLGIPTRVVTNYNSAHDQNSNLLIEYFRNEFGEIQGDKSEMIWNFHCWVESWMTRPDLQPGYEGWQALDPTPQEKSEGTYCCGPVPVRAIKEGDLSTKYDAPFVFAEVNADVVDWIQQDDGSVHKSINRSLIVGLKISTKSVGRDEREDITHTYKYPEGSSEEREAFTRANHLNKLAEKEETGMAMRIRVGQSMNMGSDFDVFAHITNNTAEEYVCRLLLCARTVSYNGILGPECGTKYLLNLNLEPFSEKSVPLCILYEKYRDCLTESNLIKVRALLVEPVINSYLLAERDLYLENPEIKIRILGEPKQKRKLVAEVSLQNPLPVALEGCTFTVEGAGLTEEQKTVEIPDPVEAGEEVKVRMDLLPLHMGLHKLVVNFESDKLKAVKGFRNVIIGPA
Test: co-IP; fractions of internalized, recycled and retained proteins as in Fig. 5E; 4G3-Fab against tTG bound to cell surfaces at 4°C; surface tTG and associated proteins immunoprecipitated from lysates; probed for α5 and β1 integrins and with neutravidin-peroxidase

binding: binds
Substance: α5β1 integrin (mouse (endogenous in NIH3T3)) (complex)
